Data reported in the supplement of paper PMC3334620.
In all, about 33,000 sequences were measured (“E-score (-0.5 to 0.5)”: median about -0.0059, highest 2% from about 0.26 on). This is one part of the list.

Each sequence was assayed against T1, Cin5 (UniProt P40917) (assay: PBM E-score (8-mer binding enrichment) (E-score (-0.5 to 0.5)); higher = stronger / more preferred TF binding). Conditions: protein concentration: 100 nM; construct: GST-full length.
T1 sequence: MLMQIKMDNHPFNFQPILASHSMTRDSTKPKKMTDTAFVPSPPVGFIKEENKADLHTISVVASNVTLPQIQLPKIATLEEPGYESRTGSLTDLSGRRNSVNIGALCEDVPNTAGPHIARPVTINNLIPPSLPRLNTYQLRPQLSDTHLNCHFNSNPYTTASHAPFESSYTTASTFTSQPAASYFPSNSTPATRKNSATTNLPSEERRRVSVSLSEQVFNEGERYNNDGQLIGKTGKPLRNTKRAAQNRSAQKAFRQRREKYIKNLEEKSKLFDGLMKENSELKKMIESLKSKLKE
Method in brief: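 PURExpress in vitro transcription/translation supplied GST-tagged yeast transcription factors, either full-length or DNA-binding domain. Applied at about 100-200 nM to universal all-10-mer Agilent arrays double-stranded by primer extension, the bound protein was detected with fluorescent anti-GST. E-scores, modified Wilcoxon-Mann-Whitney statistics, were given by the Universal PBM Analysis Suite to ungapped eight-base words pooled with their reverse complements after masliner normalisation.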
For CTACGCAA, the “PBM E-score” value was -0.135. With CCTAGCAG the “PBM E-score” value was -0.165. AAACGCAA was tested, and the “PBM E-score” value was 0.13. GTGCTCGA was tested, and the “PBM E-score” value was -0.0887. For GTGTGGTA, the “PBM E-score” value was -0.0681. CGCAATAC was tested, and the “PBM E-score” value was 0.0315. For GAGCATCC, the “PBM E-score” value was -0.0934. For AGTGCAAC, the “PBM E-score” value was 0.0064. GTGGTGCA was tested, and the “PBM E-score” value was -0.138. For GCCGATCC, the “PBM E-score” value was -0.171. In the case of GCCAAATA, the “PBM E-score” value is reported as 0.152. CCATCTGC was tested, and the “PBM E-score” value was 0.111. With AACCAGAC the “PBM E-score” value was -0.167. GAGATGAC was tested, and the “PBM E-score” value was 0.12. With GGTCGATA the “PBM E-score” value was -0.035. With CGACTCCA the “PBM E-score” value was -0.0999. With CGGACATA the “PBM E-score” value was 0.0987. ATACGGCC was tested, and the “PBM E-score” value was -0.0279. In the case of CCCCATCG, the “PBM E-score” value is reported as -0.0199. TATTAGCA was tested, and the “PBM E-score” value was 0.177. CCGTAGGC was tested, and the “PBM E-score” value was -0.136. With GACAGCCC the “PBM E-score” value was -0.171. ACATGCAC was tested, and the “PBM E-score” value was 0.0682. For CTGATTAC, the “PBM E-score” value was 0.378. In the case of GGATAGTA, the “PBM E-score” value is reported as 0.224. In the case of GTCACCGA, the “PBM E-score” value is reported as -0.12. For CTCGACAC, the “PBM E-score” value was -0.139. For CTATTGGA, the “PBM E-score” value was 0.137. In the case of CTAGGGAA, the “PBM E-score” value is reported as -0.0434. For CTGTATTA, the “PBM E-score” value was 0.133. In the case of AGTCTCAT, the “PBM E-score” value is reported as -0.0895. In the case of CCCAGTTA, the “PBM E-score” value is reported as -0.143. In the case of CACATGTA, the “PBM E-score” value is reported as 0.146. ACCGCCCG was tested, and the “PBM E-score” value was -0.236. In the case of CGTTGGTA, the “PBM E-score” value is reported as -0.0695. With ATAATATC the “PBM E-score” value was 0.221. In the case of GACTTTGA, the “PBM E-score” value is reported as -0.00717. In the case of CCCAGTGA, the “PBM E-score” value is reported as -0.202. For AAGTCGGG, the “PBM E-score” value was -0.0202. For CGCAACAC, the “PBM E-score” value was 0.0943. With GCGCAACC the “PBM E-score” value was -0.0217. AATTATTA was tested, and the “PBM E-score” value was 0.242. With CTCCCCAA the “PBM E-score” value was -0.00166. With GTTCCCAA the “PBM E-score” value was -0.187. For CCGATATA, the “PBM E-score” value was 0.0428. In the case of CTCCTCAA, the “PBM E-score” value is reported as -0.257. For CGCTAGCC, the “PBM E-score” value was -0.249. For ACGTCTAA, the “PBM E-score” value was 0.0554. In the case of CCTTTTCG, the “PBM E-score” value is reported as -0.0528. For AGTTGCCG, the “PBM E-score” value was -0.0277. For CCGTTCAG, the “PBM E-score” value was -0.0278. With CTTAGGCC the “PBM E-score” value was -0.228. In the case of ATCTAAAG, the “PBM E-score” value is reported as -0.0819. In the case of CACGGTAA, the “PBM E-score” value is reported as 0.0326. GCGCATAC was tested, and the “PBM E-score” value was -0.00979. With CATTACGG the “PBM E-score” value was 0.0504. GGTCTAGA was tested, and the “PBM E-score” value was -0.202. AAGAGTGG was tested, and the “PBM E-score” value was -0.115. GATCCCCC was tested, and the “PBM E-score” value was -0.426. In the case of GGAACCAA, the “PBM E-score” value is reported as 0.0941. In the case of ACACAGGC, the “PBM E-score” value is reported as 0.0146. GAACGTTA was tested, and the “PBM E-score” value was -0.104. With GGATACTA the “PBM E-score” value was 0.00323. With TAACGCAA the “PBM E-score” value was 0.142. In the case of CCGCGTAG, the “PBM E-score” value is reported as 0.0587. For GCTAAGCC, the “PBM E-score” value was -0.0285. For GTGCCATA, the “PBM E-score” value was -0.101. For GATGATGC, the “PBM E-score” value was -0.0135. In the case of CCGTCCAG, the “PBM E-score” value is reported as -0.201. AGCCATGA was tested, and the “PBM E-score” value was 0.0314. In the case of AACATTTA, the “PBM E-score” value is reported as 0.148. In the case of GGGAGCCC, the “PBM E-score” value is reported as -0.419. With CTGTTGTA the “PBM E-score” value was 0.0816. With AAAGAACA the “PBM E-score” value was 0.0152. For TAACTTCA, the “PBM E-score” value was 0.0483. With CAGATTAG the “PBM E-score” value was -0.00484. GACAACAA was tested, and the “PBM E-score” value was 0.152. For GAGTGCAC, the “PBM E-score” value was -0.19. AATTTTCC was tested, and the “PBM E-score” value was 0.289. In the case of AGTGAAGA, the “PBM E-score” value is reported as -0.0895. With AGAGATAT the “PBM E-score” value was -0.0177. AGCGGAAG was tested, and the “PBM E-score” value was 0.032. In the case of CGGGAAAA, the “PBM E-score” value is reported as -0.0166. For CCTATAAA, the “PBM E-score” value was -0.172. For GCCGGCGA, the “PBM E-score” value was -0.061. In the case of ATTTTGCA, the “PBM E-score” value is reported as 0.0628. With GACCGGCC the “PBM E-score” value was -0.202. AGCCGTAT was tested, and the “PBM E-score” value was -0.0916. CCAGTGCC was tested, and the “PBM E-score” value was -0.216. In the case of ACGCAGCC, the “PBM E-score” value is reported as -0.0404. For AAAAGCCG, the “PBM E-score” value was -0.0441. AAATTAGT was tested, and the “PBM E-score” value was 0.293. With AATCAAAA the “PBM E-score” value was 0.215. CCGCGCAC was tested, and the “PBM E-score” value was 0.0174. For ACGTAGTC, the “PBM E-score” value was -0.157. With CAATTAAC the “PBM E-score” value was 0.134. CCCGCCGG was tested, and the “PBM E-score” value was -0.0652. For GAGGCAGA, the “PBM E-score” value was -0.146. For CCAGTACA, the “PBM E-score” value was 0.0538. In the case of ATCTTGAC, the “PBM E-score” value is reported as 0.0245. In the case of AATTGGCA, the “PBM E-score” value is reported as 0.00514. In the case of AGGGGTTC, the “PBM E-score” value is reported as -0.0221. In the case of GGTCCAGA, the “PBM E-score” value is reported as -0.11. CGTGAATC was tested, and the “PBM E-score” value was -0.0259. GTTCCGCA was tested, and the “PBM E-score” value was 0.176. In the case of AGGTGGAC, the “PBM E-score” value is reported as -0.165. In the case of GAACGGTA, the “PBM E-score” value is reported as 0.0193. With AACGTACG the “PBM E-score” value was 0.0497. For ACGTGAAT, the “PBM E-score” value was 0.0449. For ACTGCCTG, the “PBM E-score” value was -0.0627. CGTCTACC was tested, and the “PBM E-score” value was -0.0219. For GCGGCTAC, the “PBM E-score” value was -0.0398. In the case of ACGATGCG, the “PBM E-score” value is reported as -0.0926. For AAGTAGAT, the “PBM E-score” value was 0.177. With CGCTCACG the “PBM E-score” value was 0.0438. For ATAAAATA, the “PBM E-score” value was 0.242. In the case of CCGCCCCG, the “PBM E-score” value is reported as 0.24. In the case of AAACGTCC, the “PBM E-score” value is reported as 0.00601. With GTGTTCGA the “PBM E-score” value was 0.0696. CGTTTTCA was tested, and the “PBM E-score” value was 0.0715. For ACTTCTTG, the “PBM E-score” value was -0.0532. AATCTCAG was tested, and the “PBM E-score” value was -0.0909. In the case of GCTTCACA, the “PBM E-score” value is reported as 0.0129. In the case of AGTCGCAT, the “PBM E-score” value is reported as -0.00653. With ATTATGAA the “PBM E-score” value was 0.258. GCTCAAAC was tested, and the “PBM E-score” value was 0.0406. GCGAGCAC was tested, and the “PBM E-score” value was -0.0363. For GATTGGGA, the “PBM E-score” value was -0.112. In the case of CTCATACC, the “PBM E-score” value is reported as 0.154. GATGTCGC was tested, and the “PBM E-score” value was -0.0423. In the case of CGCTAGTA, the “PBM E-score” value is reported as 0.036. CTGGTGGC was tested, and the “PBM E-score” value was -0.107. CAATGATA was tested, and the “PBM E-score” value was 0.182. ATTCTTCG was tested, and the “PBM E-score” value was 0.138. For GTTTGGTA, the “PBM E-score” value was 0.296. With CCTCACAG the “PBM E-score” value was 0.0094. With GAGGCCAC the “PBM E-score” value was -0.184. In the case of CGTGATAA, the “PBM E-score” value is reported as 0.0731. With AGTTCACC the “PBM E-score” value was 0.049. In the case of AAAGCCTT, the “PBM E-score” value is reported as -0.124. CTGCATAA was tested, and the “PBM E-score” value was 0.0574. With GTGGCCCA the “PBM E-score” value was -0.181. With AGGTAATA the “PBM E-score” value was 0.296. ATCCCTCG was tested, and the “PBM E-score” value was -0.111. AGGCCACA was tested, and the “PBM E-score” value was -0.135. With TCCCCAAA the “PBM E-score” value was 0.193. With CTGATCGA the “PBM E-score” value was -0.179. In the case of AATACAGC, the “PBM E-score” value is reported as 0.0259. For CGATTGTC, the “PBM E-score” value was -0.0858. With CAAAAGCC the “PBM E-score” value was -0.0698. For GAAGGTAC, the “PBM E-score” value was -0.0752. AGGTCGTG was tested, and the “PBM E-score” value was -0.0245. ACTTCATC was tested, and the “PBM E-score” value was -0.0118. With CCGCGGCG the “PBM E-score” value was 0.0289. In the case of CCAGTGAA, the “PBM E-score” value is reported as -0.0669. In the case of GACGCCTA, the “PBM E-score” value is reported as -0.156. With AAGACTCG the “PBM E-score” value was -0.0863. In the case of CAAGACCC, the “PBM E-score” value is reported as -0.218. CAGCGCAG was tested, and the “PBM E-score” value was -0.0299. In the case of CACGCTGA, the “PBM E-score” value is reported as 0.0116. In the case of AGCACAAC, the “PBM E-score” value is reported as 0.161. For ACCGAACT, the “PBM E-score” value was -0.101. For CTGGTTTC, the “PBM E-score” value was 0.0335. With AAGGCTGA the “PBM E-score” value was -0.0563. With AAATTGTG the “PBM E-score” value was 0.0281. In the case of AAGAACAC, the “PBM E-score” value is reported as 0.00844. For CAGTGCAC, the “PBM E-score” value was -0.107. In the case of AAAAACAC, the “PBM E-score” value is reported as 0.0623. ACCTGACC was tested, and the “PBM E-score” value was -0.0495. For GACCCCAC, the “PBM E-score” value was 0.0467. With GAGAACCC the “PBM E-score” value was -0.19. For ATACTTTG, the “PBM E-score” value was 0.2.
